Measurements: the supplement of paper PMC10849652
Some of the results follow.

Chains of the proteins cited; added tags and fusions are not shown. Lines headed by an entry give the natural chain unless they say otherwise; changes in a name come on top.
UniProt P78559: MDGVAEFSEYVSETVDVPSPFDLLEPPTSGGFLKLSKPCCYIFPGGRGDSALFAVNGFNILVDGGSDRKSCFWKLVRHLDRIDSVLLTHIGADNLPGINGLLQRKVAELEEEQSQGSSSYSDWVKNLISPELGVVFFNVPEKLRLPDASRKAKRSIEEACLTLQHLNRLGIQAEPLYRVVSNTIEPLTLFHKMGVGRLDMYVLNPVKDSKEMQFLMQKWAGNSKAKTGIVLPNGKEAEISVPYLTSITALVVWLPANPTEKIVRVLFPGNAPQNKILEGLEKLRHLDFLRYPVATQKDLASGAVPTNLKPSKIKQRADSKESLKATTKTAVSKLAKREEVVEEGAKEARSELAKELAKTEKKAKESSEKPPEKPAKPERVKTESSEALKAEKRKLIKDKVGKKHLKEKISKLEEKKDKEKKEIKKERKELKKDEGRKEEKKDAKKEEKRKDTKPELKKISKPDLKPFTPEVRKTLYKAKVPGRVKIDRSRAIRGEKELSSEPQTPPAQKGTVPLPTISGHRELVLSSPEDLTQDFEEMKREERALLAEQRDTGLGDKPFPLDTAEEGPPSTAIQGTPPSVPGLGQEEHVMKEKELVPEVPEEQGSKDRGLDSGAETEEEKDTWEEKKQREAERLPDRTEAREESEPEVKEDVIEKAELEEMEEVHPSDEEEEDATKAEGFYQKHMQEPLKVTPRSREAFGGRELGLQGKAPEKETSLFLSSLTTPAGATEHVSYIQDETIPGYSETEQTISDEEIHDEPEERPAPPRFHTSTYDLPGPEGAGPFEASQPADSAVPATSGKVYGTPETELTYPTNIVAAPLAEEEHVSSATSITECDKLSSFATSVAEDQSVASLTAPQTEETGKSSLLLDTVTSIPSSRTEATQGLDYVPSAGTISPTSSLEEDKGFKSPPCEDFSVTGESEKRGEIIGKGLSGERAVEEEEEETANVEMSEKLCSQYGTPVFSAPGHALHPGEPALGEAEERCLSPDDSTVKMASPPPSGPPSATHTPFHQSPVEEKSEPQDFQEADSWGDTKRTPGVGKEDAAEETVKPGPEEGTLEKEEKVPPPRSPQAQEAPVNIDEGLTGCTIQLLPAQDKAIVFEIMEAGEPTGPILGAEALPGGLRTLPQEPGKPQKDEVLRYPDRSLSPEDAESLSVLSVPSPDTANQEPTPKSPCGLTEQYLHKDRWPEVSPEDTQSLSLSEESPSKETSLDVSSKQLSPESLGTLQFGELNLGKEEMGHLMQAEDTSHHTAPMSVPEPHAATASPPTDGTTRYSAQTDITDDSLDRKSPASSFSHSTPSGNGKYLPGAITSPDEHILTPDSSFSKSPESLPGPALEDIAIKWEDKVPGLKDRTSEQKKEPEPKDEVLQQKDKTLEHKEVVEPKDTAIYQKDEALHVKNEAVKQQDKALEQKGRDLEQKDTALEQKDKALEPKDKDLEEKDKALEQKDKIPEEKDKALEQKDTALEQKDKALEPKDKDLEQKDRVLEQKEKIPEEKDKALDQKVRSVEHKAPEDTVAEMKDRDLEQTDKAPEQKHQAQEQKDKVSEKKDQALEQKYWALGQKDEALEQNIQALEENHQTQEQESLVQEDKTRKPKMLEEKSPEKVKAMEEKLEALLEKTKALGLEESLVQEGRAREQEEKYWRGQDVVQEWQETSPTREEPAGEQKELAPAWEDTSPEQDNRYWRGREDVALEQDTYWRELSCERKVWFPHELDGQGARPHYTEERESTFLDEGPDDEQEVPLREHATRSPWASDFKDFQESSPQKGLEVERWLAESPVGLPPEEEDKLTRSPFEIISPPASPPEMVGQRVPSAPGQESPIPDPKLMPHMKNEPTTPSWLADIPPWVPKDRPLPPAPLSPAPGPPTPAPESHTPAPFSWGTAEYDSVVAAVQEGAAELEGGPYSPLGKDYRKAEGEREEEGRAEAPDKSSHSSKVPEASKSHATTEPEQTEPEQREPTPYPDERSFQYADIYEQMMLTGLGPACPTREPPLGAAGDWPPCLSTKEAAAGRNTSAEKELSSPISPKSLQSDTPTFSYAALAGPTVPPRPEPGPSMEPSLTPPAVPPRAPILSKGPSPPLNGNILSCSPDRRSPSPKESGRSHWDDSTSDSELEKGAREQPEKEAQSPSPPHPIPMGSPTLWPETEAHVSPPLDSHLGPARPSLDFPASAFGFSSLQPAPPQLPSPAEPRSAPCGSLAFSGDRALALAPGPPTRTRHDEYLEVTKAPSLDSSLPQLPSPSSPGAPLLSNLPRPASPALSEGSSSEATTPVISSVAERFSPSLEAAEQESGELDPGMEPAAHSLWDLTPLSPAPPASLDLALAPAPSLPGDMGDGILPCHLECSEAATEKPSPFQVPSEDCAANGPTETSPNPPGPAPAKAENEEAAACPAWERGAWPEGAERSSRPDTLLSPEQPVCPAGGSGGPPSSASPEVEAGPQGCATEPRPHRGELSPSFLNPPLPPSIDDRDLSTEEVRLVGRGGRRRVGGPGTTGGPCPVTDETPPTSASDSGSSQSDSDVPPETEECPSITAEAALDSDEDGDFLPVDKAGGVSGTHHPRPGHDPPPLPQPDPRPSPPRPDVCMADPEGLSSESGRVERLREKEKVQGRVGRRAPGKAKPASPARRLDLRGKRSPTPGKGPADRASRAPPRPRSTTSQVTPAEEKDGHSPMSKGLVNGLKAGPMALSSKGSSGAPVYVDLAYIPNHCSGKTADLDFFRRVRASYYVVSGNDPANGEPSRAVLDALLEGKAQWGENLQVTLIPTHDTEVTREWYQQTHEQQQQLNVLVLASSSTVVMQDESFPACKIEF
UniProt Q13163: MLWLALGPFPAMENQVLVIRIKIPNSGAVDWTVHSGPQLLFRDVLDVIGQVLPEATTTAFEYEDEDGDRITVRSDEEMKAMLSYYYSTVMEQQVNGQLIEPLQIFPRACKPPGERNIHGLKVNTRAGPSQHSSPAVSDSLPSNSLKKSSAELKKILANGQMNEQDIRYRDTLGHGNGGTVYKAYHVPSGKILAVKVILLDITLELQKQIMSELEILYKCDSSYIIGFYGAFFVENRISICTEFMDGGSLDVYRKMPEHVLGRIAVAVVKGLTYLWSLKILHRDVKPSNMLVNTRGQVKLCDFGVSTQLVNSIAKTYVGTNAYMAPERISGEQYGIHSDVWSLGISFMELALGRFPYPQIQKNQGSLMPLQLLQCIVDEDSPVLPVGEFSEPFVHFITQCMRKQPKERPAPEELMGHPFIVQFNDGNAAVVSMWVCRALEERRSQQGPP
UniProt Q12851: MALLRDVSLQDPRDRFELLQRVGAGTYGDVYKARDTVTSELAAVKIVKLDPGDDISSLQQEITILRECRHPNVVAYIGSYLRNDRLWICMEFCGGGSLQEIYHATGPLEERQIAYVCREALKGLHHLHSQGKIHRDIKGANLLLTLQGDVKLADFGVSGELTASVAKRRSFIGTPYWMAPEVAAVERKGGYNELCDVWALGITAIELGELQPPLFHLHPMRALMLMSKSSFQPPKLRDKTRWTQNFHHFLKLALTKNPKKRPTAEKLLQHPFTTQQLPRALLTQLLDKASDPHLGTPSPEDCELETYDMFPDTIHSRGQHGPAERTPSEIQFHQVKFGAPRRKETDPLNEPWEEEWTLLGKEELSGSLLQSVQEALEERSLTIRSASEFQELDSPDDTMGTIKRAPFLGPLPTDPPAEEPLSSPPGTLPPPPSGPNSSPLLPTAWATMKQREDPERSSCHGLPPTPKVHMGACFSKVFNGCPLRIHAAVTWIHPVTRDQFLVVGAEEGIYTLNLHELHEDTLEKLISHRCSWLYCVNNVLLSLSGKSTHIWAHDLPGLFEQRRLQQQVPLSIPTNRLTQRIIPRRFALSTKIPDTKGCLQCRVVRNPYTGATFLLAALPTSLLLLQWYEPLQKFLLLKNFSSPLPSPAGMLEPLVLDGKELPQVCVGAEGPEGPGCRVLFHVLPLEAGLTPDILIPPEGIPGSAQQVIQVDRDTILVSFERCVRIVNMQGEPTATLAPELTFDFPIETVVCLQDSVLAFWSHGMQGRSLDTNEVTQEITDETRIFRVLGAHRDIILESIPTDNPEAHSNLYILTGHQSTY
UniProt Q5SRI9: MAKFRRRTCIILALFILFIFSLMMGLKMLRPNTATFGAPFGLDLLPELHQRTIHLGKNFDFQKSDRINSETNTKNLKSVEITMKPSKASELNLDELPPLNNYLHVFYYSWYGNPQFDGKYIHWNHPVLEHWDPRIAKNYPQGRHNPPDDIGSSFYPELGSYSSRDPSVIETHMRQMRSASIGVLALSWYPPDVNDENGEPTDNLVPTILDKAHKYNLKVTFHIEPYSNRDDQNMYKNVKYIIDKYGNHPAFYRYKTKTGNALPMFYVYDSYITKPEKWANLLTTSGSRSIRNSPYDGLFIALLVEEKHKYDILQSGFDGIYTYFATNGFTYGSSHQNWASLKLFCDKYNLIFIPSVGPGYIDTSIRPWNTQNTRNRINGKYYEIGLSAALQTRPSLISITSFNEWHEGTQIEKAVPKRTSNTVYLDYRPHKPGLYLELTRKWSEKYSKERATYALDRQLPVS
UniProt Q16553: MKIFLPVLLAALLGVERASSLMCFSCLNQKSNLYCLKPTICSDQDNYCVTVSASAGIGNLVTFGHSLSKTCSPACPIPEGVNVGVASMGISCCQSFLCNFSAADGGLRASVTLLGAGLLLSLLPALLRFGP
UniProt Q9Y5V3: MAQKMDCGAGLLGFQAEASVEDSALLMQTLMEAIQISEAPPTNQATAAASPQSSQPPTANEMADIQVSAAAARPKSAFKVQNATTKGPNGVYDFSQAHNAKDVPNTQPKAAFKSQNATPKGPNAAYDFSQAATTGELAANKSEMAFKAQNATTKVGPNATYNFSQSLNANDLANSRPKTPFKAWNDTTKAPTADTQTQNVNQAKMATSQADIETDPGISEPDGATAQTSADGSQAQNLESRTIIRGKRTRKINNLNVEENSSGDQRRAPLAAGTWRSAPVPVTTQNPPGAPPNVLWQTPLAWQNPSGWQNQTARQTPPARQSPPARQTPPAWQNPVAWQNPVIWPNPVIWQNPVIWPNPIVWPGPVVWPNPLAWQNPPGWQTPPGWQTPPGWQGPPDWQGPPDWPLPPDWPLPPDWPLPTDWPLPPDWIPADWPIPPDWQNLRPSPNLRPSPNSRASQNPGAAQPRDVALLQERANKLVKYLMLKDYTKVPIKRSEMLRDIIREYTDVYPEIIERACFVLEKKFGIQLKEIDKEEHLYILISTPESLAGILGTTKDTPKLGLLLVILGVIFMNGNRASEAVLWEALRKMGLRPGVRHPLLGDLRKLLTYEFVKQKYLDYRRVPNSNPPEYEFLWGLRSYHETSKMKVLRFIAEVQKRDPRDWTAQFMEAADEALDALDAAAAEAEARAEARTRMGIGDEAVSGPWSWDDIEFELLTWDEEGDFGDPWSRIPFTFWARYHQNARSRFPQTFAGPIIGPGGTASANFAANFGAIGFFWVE

Legend:
Test in all cases: log2 fold change, soluble protein after heating vs DMSO (PISA); higher = thermal stabilisation; K562 lysate, 10 uM; active = over 0.2 and 3.5 SD of the protein, either way, in both replicates (recomputed)
lapatinib = compound: CS(=O)(=O)CCNCc1ccc(-c2ccc3ncnc(Nc4ccc(OCc5cccc(F)c5)c(Cl)c4)c3c2)o1 [lapatinib]
How it was run: (§1)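 The values are log-two fold changes in thermal stability compared with solvent controls and come from duplicates. They were obtained by TMTpro 16plex LC-MS/MS, with channel sums equalised, on the supernatant after 21,000xg for 90 min. That supernatant came from crude K562 extract at 1 mg/mL protein treated with 10 μM compound for 30 min, heated for 3 min across 48°C-58°C, pooled and brought to 0.5% NP-40 at 4°C.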

pictilisib = compound: CS(=O)(=O)N1CCN(Cc2cc3nc(-c4cccc5[nH]ncc45)nc(N4CCOCC4)c3s2)CC1 [pictilisib]
How it was run: as §1

crizotinib = compound: C[C@@H](Oc1cc(-c2cnn(C3CCNCC3)c2)cnc1N)c1c(Cl)ccc(F)c1Cl [crizotinib]
How it was run: as §1

[1] = compound: C[C@H](C1=CC=C(C=C1)C(=O)NC2=C3C=CNC3=NC=C2)N
How it was run: as §1

duvelisib = compound: C[C@H](Nc1ncnc2nc[nH]c12)c1cc2cccc(Cl)c2c(=O)n1-c1ccccc1 [duvelisib]
How it was run: as §1

gandotinib = compound: Cc1cc(Nc2cc(CN3CCOCC3)c3nc(C)c(Cc4ccc(Cl)cc4F)n3n2)n[nH]1 [gandotinib]
How it was run: as §1

tozasertib = compound: Cc1cc(Nc2cc(N3CCN(C)CC3)nc(Sc3ccc(NC(=O)C4CC4)cc3)n2)n[nH]1 [tozasertib]
How it was run: as §1

doramapimod = compound: Cc1ccc(-n2nc(C(C)(C)C)cc2NC(=O)Nc2ccc(OCCN3CCOCC3)c3ccccc23)cc1 [doramapimod]
How it was run: as §1

bafetinib = compound: Cc1ccc(NC(=O)c2ccc(CN3CC[C@H](N(C)C)C3)c(C(F)(F)F)c2)cc1Nc1nccc(-c2cncnc2)n1 [bafetinib]
How it was run: as §1

[2] = compound: Cc1cccc(CC(=O)N2CCc3c2ccc(-c2cn(C)c4ncnc(N)c24)c3F)n1
How it was run: as §1

nilotinib = compound: Cc1cn(-c2cc(NC(=O)c3ccc(C)c(Nc4nccc(-c5cccnc5)n4)c3)cc(C(F)(F)F)c2)cn1 [nilotinib]
How it was run: as §1

[3] = compound: Cc1nc(Nc2n[nH]c3c2CN(C(=O)N[C@H](CN(C)C)c2ccccc2)C3(C)C)c2sccc2n1
How it was run: as §1

dasatinib = compound: Cc1nc(Nc2ncc(C(=O)Nc3c(C)cccc3Cl)s2)cc(N2CCN(CCO)CC2)n1 [dasatinib]
How it was run: as §1

[4] = compound: Cc1ncc(-c2ccnc(Nc3ccc(S(C)(=O)=O)cc3)n2)n1C(C)C
How it was run: as §1

[5] = compound: Cn1cc(-c2ccc3c(c2)CCN3C(=O)Cc2cccc(C(F)(F)F)c2)c2c(N)ncnc21
How it was run: as §1

quisinostat = compound: Cn1cc(CNCC2CCN(c3ncc(C(=O)NO)cn3)CC2)c2ccccc21 [quisinostat]
How it was run: as §1

tipifarnib = compound: Cn1cncc1[C@@](N)(c1ccc(Cl)cc1)c1ccc2c(c1)c(-c1cccc(Cl)c1)cc(=O)n2C [tipifarnib]
How it was run: as §1

[6] = compound: NC(=O)Nc1cc(-c2cccc(F)c2)sc1C(=O)N[C@H]1CCCNC1
How it was run: as §1

[7] = compound: NC(=O)c1cnc(N[C@@H]2CCCC[C@@H]2N)nc1Nc1cccc(-n2nccn2)c1
How it was run: as §1

[8] = compound: NC1(c2ccc(-c3nc4ccn5c(=O)[nH]nc5c4cc3-c3ccccc3)cc2)CCC1
How it was run: as §1

How did the log2 fold change (lapatinib) turn out when MAP1A (UniProt P78559) was run?
Its log2 fold change is inactive: -0.001.

What about the log2 fold change (pictilisib) of the same target?
The log2 fold change was inactive: 0.008.

What about the log2 fold change (crizotinib) of the same target?
The log2 fold change was inactive: -0.005.

What about the log2 fold change [1] of the same target?
Its log2 fold change is inactive: -0.011.

What about the log2 fold change (duvelisib) of the same target?
Its log2 fold change is inactive: 0.017.

And the log2 fold change (gandotinib)?
The log2 fold change was inactive: 0.012.

What about the log2 fold change (tozasertib) of the same target?
Its log2 fold change is inactive: -0.009.

What about the log2 fold change (doramapimod) of the same target?
Its log2 fold change is inactive: -0.024.

What about the log2 fold change (bafetinib) of the same target?
The log2 fold change was inactive: -0.045.

And the log2 fold change [2]?
Its log2 fold change is inactive: 0.004.

What about the log2 fold change (nilotinib) of the same target?
Its log2 fold change is inactive: -0.005.

What about the log2 fold change [3] of the same target?
The log2 fold change was inactive: 0.003.

What about the log2 fold change (dasatinib) of the same target?
Its log2 fold change is inactive: -0.012.

What about the log2 fold change [4] of the same target?
The log2 fold change was inactive: 0.009.

What about the log2 fold change [5] of the same target?
Its log2 fold change is inactive: 0.002.

And the log2 fold change (quisinostat)?
The log2 fold change was inactive: -0.023.

What about the log2 fold change (tipifarnib) of the same target?
The log2 fold change was inactive: 0.012.

And the log2 fold change [6]?
The log2 fold change was inactive: 0.022.

What about the log2 fold change [7] of the same target?
Its log2 fold change is inactive: -0.001.

What about the log2 fold change [8] of the same target?
Its log2 fold change is inactive: -0.002.

Which results are given for MAP2K5 (UniProt Q13163)?
log2 fold change (lapatinib): inactive: 0.038; log2 fold change (pictilisib): inactive: -0.021; log2 fold change (crizotinib): inactive: -0.109; log2 fold change [1]: inactive: 0.013; log2 fold change (duvelisib): inactive: 0.152; log2 fold change (gandotinib): inactive: -0.089; log2 fold change (doramapimod): inactive: -0.017; log2 fold change (bafetinib): inactive: -0.436; log2 fold change [2]: inactive: 0.105; log2 fold change (nilotinib): inactive: 0.019; log2 fold change [3]: inactive: -0.086; log2 fold change (dasatinib): inactive: -0.229; log2 fold change [4]: inactive: -0.143; log2 fold change [5]: inactive: 0.079; log2 fold change (quisinostat): inactive: -0.152; log2 fold change (tipifarnib): inactive: -0.015; log2 fold change [6]: active: 0.925; log2 fold change [7]: inactive: 0.035; log2 fold change [8]: inactive: -0.048

What does the source list for MAP4K2 (UniProt Q12851)?
log2 fold change (lapatinib): inactive: -0.164; log2 fold change (pictilisib): inactive: 0.126; log2 fold change [1]: inactive: 0.145; log2 fold change (duvelisib): inactive: 0.077; log2 fold change (gandotinib): inactive: 0.273; log2 fold change (tozasertib): inactive: 0.054; log2 fold change (doramapimod): inactive: 0.035; log2 fold change (bafetinib): inactive: -0.126; log2 fold change [2]: inactive: -0.015; log2 fold change (dasatinib): inactive: 0.511; log2 fold change [5]: inactive: 0.123; log2 fold change (quisinostat): inactive: -0.193; log2 fold change [6]: active: 0.965; log2 fold change [7]: inactive: 0.159; log2 fold change [8]: inactive: -0.062

How did the log2 fold change (lapatinib) turn out when MANEA (UniProt Q5SRI9) was run?
The log2 fold change was inactive: -0.01.

And the log2 fold change (pictilisib)?
The log2 fold change was inactive: 0.008.

What about the log2 fold change (crizotinib) of the same target?
The log2 fold change was inactive: -0.023.

What about the log2 fold change [1] of the same target?
The log2 fold change was active: -0.464.

And the log2 fold change (duvelisib)?
Its log2 fold change is inactive: 0.036.

And the log2 fold change (gandotinib)?
The log2 fold change was active: 0.365.

What about the log2 fold change (tozasertib) of the same target?
The log2 fold change was inactive: 0.035.

And the log2 fold change (doramapimod)?
The log2 fold change was inactive: 0.034.

What about the log2 fold change (bafetinib) of the same target?
The log2 fold change was inactive: 0.007.

What about the log2 fold change [2] of the same target?
The log2 fold change was inactive: 0.278.

What about the log2 fold change (dasatinib) of the same target?
Its log2 fold change is inactive: -0.003.

What about the log2 fold change [5] of the same target?
The log2 fold change was inactive: 0.046.

And the log2 fold change (quisinostat)?
Its log2 fold change is inactive: 0.046.

And the log2 fold change [6]?
The log2 fold change was inactive: 0.05.

What about the log2 fold change [7] of the same target?
The log2 fold change was inactive: 0.01.

What about the log2 fold change [8] of the same target?
Its log2 fold change is inactive: -0.044.

Which log2 fold change (lapatinib) does the source give for MAP3K20 isoform 2 (UniProt Q9NYL2) here?
The log2 fold change was inactive: -0.121.

And the log2 fold change (pictilisib)?
Its log2 fold change is inactive: -0.102.

What about the log2 fold change (crizotinib) of the same target?
Its log2 fold change is inactive: -0.013.

And the log2 fold change [1]?
The log2 fold change was inactive: -0.206.

And the log2 fold change (duvelisib)?
Its log2 fold change is inactive: -0.003.

What about the log2 fold change (gandotinib) of the same target?
Its log2 fold change is inactive: 0.028.

What about the log2 fold change (tozasertib) of the same target?
The log2 fold change was inactive: -0.155.

What about the log2 fold change (doramapimod) of the same target?
Its log2 fold change is inactive: 0.122.

And the log2 fold change (bafetinib)?
The log2 fold change was inactive: 0.187.

And the log2 fold change [2]?
Its log2 fold change is inactive: 0.222.

And the log2 fold change (nilotinib)?
The log2 fold change was inactive: 0.147.

What about the log2 fold change [3] of the same target?
Its log2 fold change is inactive: -0.047.

And the log2 fold change (dasatinib)?
Its log2 fold change is inactive: -0.034.

What about the log2 fold change [4] of the same target?
The log2 fold change was inactive: -0.041.

And the log2 fold change [5]?
The log2 fold change was inactive: 0.118.

And the log2 fold change (quisinostat)?
The log2 fold change was inactive: 0.003.

What about the log2 fold change (tipifarnib) of the same target?
Its log2 fold change is inactive: -0.13.

What about the log2 fold change [6] of the same target?
The log2 fold change was inactive: -0.008.

What about the log2 fold change [7] of the same target?
The log2 fold change was inactive: -0.006.

And the log2 fold change [8]?
Its log2 fold change is inactive: -0.102.

Which log2 fold change (lapatinib) does the source give for LY6E (UniProt Q16553) here?
Its log2 fold change is inactive: -0.026.

What about the log2 fold change (pictilisib) of the same target?
The log2 fold change was inactive: 0.071.

What about the log2 fold change [1] of the same target?
The log2 fold change was active: -1.51.

What about the log2 fold change (gandotinib) of the same target?
Its log2 fold change is inactive: 0.412.

What about the log2 fold change (tozasertib) of the same target?
Its log2 fold change is inactive: 0.079.

And the log2 fold change (bafetinib)?
The log2 fold change was inactive: -0.2.

What about the log2 fold change [2] of the same target?
The log2 fold change was inactive: 0.588.

And the log2 fold change (nilotinib)?
The log2 fold change was inactive: -0.141.

And the log2 fold change [3]?
Its log2 fold change is inactive: 0.031.

What about the log2 fold change [4] of the same target?
Its log2 fold change is inactive: 0.056.

And the log2 fold change (tipifarnib)?
Its log2 fold change is inactive: 0.033.

What about the log2 fold change [7] of the same target?
Its log2 fold change is inactive: 0.08.

What does the source list for MAGED1 isoform 2 (UniProt Q9Y5V3)?
log2 fold change (lapatinib): inactive: 0.055; log2 fold change (pictilisib): inactive: -0.038; log2 fold change (crizotinib): inactive: 0.021; log2 fold change [1]: inactive: 0.047; log2 fold change (gandotinib): inactive: 0.218; log2 fold change (doramapimod): inactive: -0.006; log2 fold change (bafetinib): inactive: -0.058; log2 fold change [2]: inactive: -0.145; log2 fold change (nilotinib): inactive: 0.018; log2 fold change [3]: inactive: 0.055; log2 fold change [4]: inactive: -0.062; log2 fold change (quisinostat): inactive: -0.076; log2 fold change (tipifarnib): inactive: 0.146; log2 fold change [6]: inactive: 0.019; log2 fold change [7]: inactive: 0.085; log2 fold change [8]: inactive: -0.044
